# According to patent US20070117864A1, “Composition for preventing and treating hepatoma” (Tokyo University of Agr. & Tech. TLO Co., Ltd., priority 2003, published 2007):
# Assays:
# [1] = food intake, body weight gain and liver weight in hepatoma-bearing rats; format: in vivo, rat; conditions: for Food intake / Liver weight: mean ± SEM of 11 rats
# Experimental: Male Donryu rats of four weeks old were purchased from NRC Haruna, Gumma, Japan, and were preliminarily fed for 6 days in quintuple cages in a room with a controlled environment with light period of 8:00 to 20:00, room temperature of 22±1° C., and relative humidity of 60±5%. For the first 3 days, the animals were fed ad libitum with a stock pellet diet (CE-2; CLEA Japan, Tokyo), and for the next 3 days, they were fed a basal diet containing 20% milk casein (20C) (Table 1) ad libitum together with tap water in a glass container. Following the completion of this preparatory raising, the rats were divided into three groups (11 animals per group) with equal average body weights of the respective groups were equal, and 1.0×10^7 of AH109A cells suspended in PBS (−) were transplanted in the back of all the rats. From the time immediately after transplantation, in the respective experimental groups, the animals were fed the experimental diets shown in Table 2. During the experimental period, the body weight, food intake and solid tumor size (sum of length, width and height) were measured everyday. On the day that the animals were killed, animals were deprived of experimental diets at 9:00, but freely given water until they were killed 4 hours later. Blood was collected from carotid, and the liver and solid tumors were excised. The collected blood was allowed to stand for approximately 2 hours at room temperature, and then centrifuged for 10 minutes at 3000 rpm (1750×g), 4° C., to obtain serum. This blood serum was frozen and stored at −20° C. The livers and solid tumors were washed with physiological saline, blotted on filter paper, and weighed. Furthermore, feces from the 19th to 21st days after transplantation were collected, and these feces were frozen and stored at −20° C. for the measurement of the amounts of steroids excreted from the body.
# [2] = fecal steroid excretion in hepatoma-bearing rats; format: in vivo, rat; conditions: final two days, mean ± SEM of 11 rats
# Experimental: Male Donryu rats of four weeks old were purchased from NRC Haruna, Gumma, Japan, and were preliminarily fed for 6 days in quintuple cages in a room with a controlled environment with light period of 8:00 to 20:00, room temperature of 22±1° C., and relative humidity of 60±5%. For the first 3 days, the animals were fed ad libitum with a stock pellet diet (CE-2; CLEA Japan, Tokyo), and for the next 3 days, they were fed a basal diet containing 20% milk casein (20C) (Table 1) ad libitum together with tap water in a glass container. Following the completion of this preparatory raising, the rats were divided into three groups (11 animals per group) with equal average body weights of the respective groups were equal, and 1.0×10^7 of AH109A cells suspended in PBS (−) were transplanted in the back of all the rats. From the time immediately after transplantation, in the respective experimental groups, the animals were fed the experimental diets shown in Table 2.
# During the experimental period, the body weight, food intake and solid tumor size (sum of length, width and height) were measured everyday. […]
# The amounts of fecal steroids, neutral sterol (NS) and bile acid (BA), excreted into feces were measured. The feces were dried at 60° C., and the dry weight was measured; then, the feces were pulverized using a mixer and a mortar and pestle. […]
structure (smiles),measurement,setting,value
"O=C1OCC(Cc2cccc(O)c2)C1Cc1cccc(O)c1 (stereo not shown) [Enterolactone, enterolactone]",Food intake,[1]; diet 10 ppm,433 ± 14 g/21 days
same,Liver weight,[1]; diet 10 ppm,10.1 ± 0.5 g/rat
same,Food intake,[1]; diet 100 ppm,472 ± 9 g/21 days
same,Liver weight,[1]; diet 100 ppm,11.3 ± 4.0 g/rat
same,"amount of food ingested, liver weight, lipid peroxides, liver lipid levels",[1]; respective diet groups compared,no significant differences
same,Steroid excretion Fecal dry weight,[2]; diet 10 ppm,2.87 ± 0.18 g/2 days
same,Steroid excretion Fecal dry weight,[2]; diet 100 ppm,2.99 ± 0.14 g/2 days
